Source: the supplement of paper PMC3682954
Where “and” joins values, the source holds several entries; their conditions need not be identical. Identical values can stand only once. Counter-ions that a name gives are not always drawn. ± gives the standard deviation of the averaged measurements. The list shows a part of the results. Single values are uncertain, as repeats are few or missing.

Tested on: RAW 264.7
Assay: cell viability (MTT) relative to vehicle control; higher = more viable cells
Conditions: stimulus: HMGB1 5 ug/ml, 18 h
[1] = compound concentration: 1 ug/ml

Compound	cell viability [1]	cell viability (compound concentration: 3 uM)
O=c1c(O)c(-c2ccc(O)cc2)oc2cc(O)ccc12	81.2%	–
CN1CCN(C2=Nc3cc(F)ccc3Cc3ccccc32)CC1 [Fluperlapine]	–	94.9 ± 3.4%
C[C@H]1O[C@@H](O[C@H]2[C@@H](O)C[C@H](O[C@H]3[C@@H](O)C[C@H](O[C@H]4CC[C@@]5(C)[C@H](CC[C@@H]6[C@@H]5C[C@@H](O)[C@]5(C)[C@@H](C7=CC(=O)OC7)CC[C@]65O)C4)O[C@@H]3C)O[C@@H]2C)C[C@H](O)[C@@H]1O	–	95.5%
C[C@H]1O[C@@H](O[C@H]2[C@@H](O)C[C@H](O[C@H]3[C@@H](O)C[C@H](O[C@H]4CC[C@@]5(C)[C@H](CC[C@@H]6[C@@H]5C[C@@H](O)[C@]5(C)[C@@H](C7=CC(=O)OC7)CC[C@]65O)C4)O[C@@H]3C)O[C@@H]2C)C[C@H](O)[C@@H]1O [Digoxin]	102%	114%
NC(N)=NC(N)=Nc1cccc(Cl)c1 [1-(m-Chlorophenyl)-biguanide hydrochloride]	–	110%
CS(=O)(=O)OCCCCOS(C)(=O)=O [Busulfan]	–	96.9%
CS(=O)(=O)OCCCCOS(C)(=O)=O	–	103 ± 7%
Cc1c(NC(=O)c2cccnc2)c(=O)n(-c2ccccc2)n1C	–	111%
Cc1c(NC(=O)c2cccnc2)c(=O)n(-c2ccccc2)n1C [Nifenazone]	–	101%
O=C(/C=C/c1ccc(O)cc1)c1ccc(O)cc1O [Isoliquiritigenin]	–	93%
COC1(C2=NCCN2)COc2ccccc2O1 (stereo unspecified)	–	123%
OC[C@H]1O[C@@H](n2cnc3c(N[C@H]4CCC[C@@H]4O)ncnc32)[C@H](O)[C@@H]1O	–	108%
NS(=O)(=O)c1cc2c(cc1C(F)(F)F)NCNS2(=O)=O [Hydroflumethiazide]	–	96.1%
NS(=O)(=O)c1cc2c(cc1C(F)(F)F)NCNS2(=O)=O	–	100%
CC(C)NC[C@@H](O)COc1ccc(CC(N)=O)cc1 [(R)-(+)-Atenolol]	–	127%
NC(=O)CCCCC1CCSS1 (stereo unspecified)	–	107%
COc1cc(OC)c2c(c1)OC(c1ccc(O)cc1)CC2=O (stereo unspecified) [4'-Hydroxy-5,7-dimethoxyflavanone]	99.7%	–
Cc1ccc2nc(CN(CCN(Cc3nc4ccc(C)cc4[nH]3)Cc3nc4ccc(C)cc4[nH]3)Cc3nc4ccc(C)cc4[nH]3)[nH]c2c1	–	28.2%
CCC1(C)OC(=O)N(C)C1=O (stereo unspecified)	–	106%
O=C(OOC(=O)c1ccccc1)c1ccccc1	–	108%
Nc1cc(=O)[nH]c(N)n1 [2,4-Diamino-6-pyrimidinone]	–	98.7%
N[C@@H](Cc1c[nH]c2ccccc12)C(=O)O	–	100%
N[C@@H](Cc1c[nH]c2ccccc12)C(=O)O [L-Tryptophan]	100%	116%
CC(O)Cn1cnc2c1c(=O)n(C)c(=O)n2C (stereo unspecified)	–	109%
CCn1c(=O)[nH]c2cc(Cl)c(Cl)cc21	–	95.1%
CC[C@@H]1C(=O)OC[C@@H]1Cc1cncn1C [Pilocarpine]	–	109%

Compound	cell viability [1]	cell viability (compound concentration: 3 uM)
CC[C@@H]1C(=O)OC[C@@H]1Cc1cncn1C [Pilocarpine nitrate]	–	114 ± 9.6%
CC[C@@H]1C(=O)OC[C@@H]1Cc1cncn1C [(+)-Pilocarpine hydrochloride]	–	111%
CC[C@@H]1C(=O)OC[C@@H]1Cc1cncn1C	–	112% and 95.4%
CC[C@@H]1C(=O)OC[C@@H]1Cc1cncn1C [Pilocarpine hydrochloride]	92.3%	–
Cc1cc2c(C(C)C)c(O)c(O)c(C=Nc3ccc4c(c3)CCN4S(C)(=O)=O)c2c(O)c1-c1c(C)cc2c(C(C)C)c(O)c(O)c(C=Nc3ccc4c(c3)CCN4S(C)(=O)=O)c2c1O	103%	–
CC[C@@]1(O)C[C@H](O[C@H]2C[C@H](N(C)C)[C@H](O[C@H]3C[C@H](O)[C@H](O[C@H]4CCC(=O)[C@H](C)O4)[C@H](C)O3)[C@H](C)O2)c2c(cc3c(c2O)C(=O)c2c(O)cccc2C3=O)[C@H]1C(=O)OC [Aclarubicin]	–	6.69%
CN1C(=O)CC[C@H]1c1cccnc1	–	96.8%
CN1C(=O)CC[C@H]1c1cccnc1 [(-)-Cotinine]	89.2%	99 ± 7.2%
S=C(S)N1CCCC1 [Ammonium pyrrolidinedithiocarbamate]	–	109%
CC(=O)CC(c1ccccc1)c1c(O)c2ccccc2oc1=O (stereo unspecified) [Warfarin]	–	105%
CC(=O)CC(c1ccccc1)c1c(O)c2ccccc2oc1=O (stereo unspecified)	–	102 ± 3%
NS(=O)(=O)c1cc2c(cc1Cl)NC(C1CC3C=CC1C3)NS2(=O)=O (stereo unspecified) [Cyclothiazide]	–	115%
NS(=O)(=O)c1cc2c(cc1Cl)NC(C1CC3C=CC1C3)NS2(=O)=O (stereo unspecified)	–	99.3%
O=C1NS(=O)(=O)c2ccccc21	–	105%
NC(N)=NC(=O)c1nc(Cl)c(N)nc1N	–	95.3%
O=c1oc2c(O)c(O)cc3c(=O)oc4c(O)c(O)cc1c4c23 [Ellagic acid hydrate]	95.4%	–
O=c1oc2c(O)c(O)cc3c(=O)oc4c(O)c(O)cc1c4c23	–	109 ± 6.9%
CO[C@@H]1[C@@H](O[C@@H]2O[C@H](C)[C@@H](O[C@H]3C[C@@](C)(O)[C@@H](OC(=O)CC(C)C)[C@H](C)O3)[C@H](N(C)C)[C@H]2O)[C@@H](CC=O)C[C@@H](C)[C@@H](O)/C=C/C=C/C[C@@H](C)OC(=O)C[C@H]1OC(C)=O [Josamycin]	106%	111%
Cc1ccc2oc(=O)c(-c3ccc(Cl)cc3)c(C)c2c1 [3(4'-Chlorophenyl)-4,6-dimethylcoumarin]	107%	–
CSC(=N)NCCC[C@H](N)C(=O)O [S-Methyl-L-thiocitrulline acetate]	–	104%
O=C(O)[C@@H]1C[C@H](C(=O)O)N1 [cis-Azetidine-2,4-dicarboxylic acid]	–	113%
CC(=O)OCC(=O)[C@@]12OC(C)(C)O[C@@H]1C[C@H]1[C@@H]3C[C@H](F)C4=CC(=O)C=C[C@]4(C)[C@@]3(F)[C@@H](O)C[C@@]12C	–	115%
CC(=O)OCC(=O)[C@@]12OC(C)(C)O[C@@H]1C[C@H]1[C@@H]3C[C@H](F)C4=CC(=O)C=C[C@]4(C)[C@@]3(F)[C@@H](O)C[C@@]12C [Fluocinonide]	–	126%
c1ccc2c(CC3=NCCN3)cccc2c1 [Naphazoline hydrochloride]	–	99.3 ± 18%
c1ccc2c(CC3=NCCN3)cccc2c1 [Naphazoline]	–	101%
c1ccc2c(CC3=NCCN3)cccc2c1	–	107%

Compound	cell viability [1]	cell viability (compound concentration: 3 uM)
CCN(CC)CC(=O)Nc1c(C)cccc1C [Lidocaine hydrochloride]	–	102%
CCN(CC)CC(=O)Nc1c(C)cccc1C [Lidocaine]	–	111%
CCN(CC)CC(=O)Nc1c(C)cccc1C [Lidocaïne hydrochloride]	–	90.7%
CCN(CC)CC(=O)Nc1c(C)cccc1C	–	97.6% and 99.6%
C=C1CC[C@@H]2[C@](C)(CO)[C@H](O)CC[C@@]2(C)[C@@H]1C/C=C1/C(=O)OC[C@H]1O [Andrographolide]	87.7%	–
CC(=O)NS(=O)(=O)c1ccc(N)cc1	–	100%
CC(=O)NS(=O)(=O)c1ccc(N)cc1 [Sulfacetamide sodic hydrate]	–	103%
Cc1cn([C@H]2C=C[C@@H](CO)O2)c(=O)[nH]c1=O	–	97.2%
Cc1cn([C@H]2C=C[C@@H](CO)O2)c(=O)[nH]c1=O [Stavudine]	–	89.6%
CC(=O)OC1CCC2(C)C(CCC3(C)C2C(=O)C=C2C4CC(C)(C(=O)N5CC6CC(C5)c5cccc(=O)n5C6)CCC4(C)CCC23C)C1(C)C (stereo unspecified)	106%	–
C=CC1=C(C(=O)O)N2C(=O)[C@@H](NC(=O)/C(=N\O)c3csc(N)n3)[C@H]2SC1	–	104.3 ± 1%
C=CC1=C(C(=O)O)N2C(=O)[C@@H](NC(=O)/C(=N\O)c3csc(N)n3)[C@H]2SC1 [Cefdinir]	–	110%
Nc1ncnc2c1nc(Br)n2C1OC2COP(=O)(O)O[C@@H]2C1O (stereo partly specified) [8-Bromo-cAMP sodium]	–	98.6%
OCc1ccccc1O[C@@H]1O[C@H](CO)[C@@H](O)[C@H](O)[C@H]1O [D(-)-Salicin]	101%	–
OCc1ccccc1O[C@@H]1O[C@H](CO)[C@@H](O)[C@H](O)[C@H]1O	–	101%
Ic1ccc(N2CCN(Cc3c[nH]c4ncccc34)CC2)cc1 [L-750,667 trihydrochloride]	–	112%
COc1cccc2c1C(=O)c1c(O)c3c(c(O)c1C2=O)C[C@@](O)(C(C)=O)C[C@@H]3O[C@H]1C[C@H](N)[C@H](O)[C@H](C)O1 [Daunorubicin hydrochloride]	–	2.21%
COc1cccc2c1C(=O)c1c(O)c3c(c(O)c1C2=O)C[C@@](O)(C(C)=O)C[C@@H]3O[C@H]1C[C@H](N)[C@H](O)[C@H](C)O1 [Daunorubicin]	–	3.09%
COc1cccc2c1C(=O)c1c(O)c3c(c(O)c1C2=O)C[C@@](O)(C(C)=O)C[C@@H]3O[C@H]1C[C@H](N)[C@H](O)[C@H](C)O1	–	2.54 ± 1.4%
O=C(Nc1cccc(C(=O)Nc2ccc(S(=O)(=O)O)c3cc(S(=O)(=O)O)cc(S(=O)(=O)O)c23)c1)Nc1cccc(C(=O)Nc2ccc(S(=O)(=O)O)c3cc(S(=O)(=O)O)cc(S(=O)(=O)O)c23)c1	–	111%
Nc1cc(Cl)c(NC2=NCCN2)c(Cl)c1 [p-Aminoclonidine hydrochloride]	–	104%
CCN(CC)CCNC(C(=O)OCCC(C)C)c1ccccc1 (stereo unspecified)	–	109%
C[C@@H]1C[C@H]2[C@@H]3CCC4=CC(=O)C=C[C@]4(C)[C@@]3(F)[C@@H](O)C[C@]2(C)[C@@]1(O)C(=O)COP(=O)(O)O	–	108%
CC(=O)OCC(=O)[C@@]1(O)CCC2C3CCC4=CC(=O)C=C[C@]4(C)[C@@]3(F)[C@@H](O)C[C@@]21C (stereo partly specified)	–	123%
O=c1c(O[C@@H]2O[C@H](CO)[C@H](O)[C@H](O)[C@H]2O)c(-c2ccc(O)c(O)c2)oc2cc(O)cc(O)c12	–	98%
